For one molecule, binding results are on record in PMC10919858.

The assay addresses T1, TRIM72-flag (mouse) (UniProt Q1XH17).
T1 sequence: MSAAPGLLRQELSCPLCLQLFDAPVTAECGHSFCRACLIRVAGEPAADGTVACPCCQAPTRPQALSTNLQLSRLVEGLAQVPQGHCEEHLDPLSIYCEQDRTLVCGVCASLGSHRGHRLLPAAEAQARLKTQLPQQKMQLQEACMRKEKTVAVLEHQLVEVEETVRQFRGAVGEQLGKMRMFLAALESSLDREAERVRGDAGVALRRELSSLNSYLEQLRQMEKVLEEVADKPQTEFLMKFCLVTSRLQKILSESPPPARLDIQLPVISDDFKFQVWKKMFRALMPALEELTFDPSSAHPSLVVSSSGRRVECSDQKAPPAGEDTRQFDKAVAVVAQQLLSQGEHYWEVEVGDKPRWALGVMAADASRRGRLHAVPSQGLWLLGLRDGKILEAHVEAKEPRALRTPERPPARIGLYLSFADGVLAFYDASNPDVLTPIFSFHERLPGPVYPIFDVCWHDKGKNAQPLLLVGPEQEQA
The assay can be described thus: co-IP.

These are yes or no findings as the source states them, for the method shown. In cells and extracts the contact can be indirect. Some results given as binding are weak or reduced against the parent protein; the word gives no strength. Where a sequence is shown, tags or fusion partners need not be part of it.

B1: LBV-M-HA (protein, UniProt Q6JAM6 1-202)
chain: MNFLRKIVKNCKDEEIPKPGTPSAPPDDDDLWMPPPEYVPLTQIKGKENVRNFCINGEIKICSPNGYSFRILRHILKSFDNVYSGNRRLIGVVKVVIGLVLSASPVPEGMNWVYKLRRTLIFQWAESHGPLEGEELEYSQEITWDDEAEFVSLQIRVSAKQCHIQGRLWCINMNSKACQLWADMGLKTQQSQEDENTSLLLE
Consider B1, for which the binding entry was “binds”.
